Experimental data published in PMC6312541.
These are yes or no findings as the source states them, for the method shown. Binding seen in cells or lysates may run through a third protein. These calls come from enrichment with a bait or labelling near it, and not all partners need be listed.

Chains of the proteins cited; added tags and fusions are not shown. Lines headed by an entry give the natural chain unless they say otherwise; changes in a name come on top. A line that says so, or that is headed by a name, gives the form on record, which may keep a tag or linker.
eukaryotic translation initiation factor 4 gamma1 (eIF4GI), HA-tagged (Q04637, form named): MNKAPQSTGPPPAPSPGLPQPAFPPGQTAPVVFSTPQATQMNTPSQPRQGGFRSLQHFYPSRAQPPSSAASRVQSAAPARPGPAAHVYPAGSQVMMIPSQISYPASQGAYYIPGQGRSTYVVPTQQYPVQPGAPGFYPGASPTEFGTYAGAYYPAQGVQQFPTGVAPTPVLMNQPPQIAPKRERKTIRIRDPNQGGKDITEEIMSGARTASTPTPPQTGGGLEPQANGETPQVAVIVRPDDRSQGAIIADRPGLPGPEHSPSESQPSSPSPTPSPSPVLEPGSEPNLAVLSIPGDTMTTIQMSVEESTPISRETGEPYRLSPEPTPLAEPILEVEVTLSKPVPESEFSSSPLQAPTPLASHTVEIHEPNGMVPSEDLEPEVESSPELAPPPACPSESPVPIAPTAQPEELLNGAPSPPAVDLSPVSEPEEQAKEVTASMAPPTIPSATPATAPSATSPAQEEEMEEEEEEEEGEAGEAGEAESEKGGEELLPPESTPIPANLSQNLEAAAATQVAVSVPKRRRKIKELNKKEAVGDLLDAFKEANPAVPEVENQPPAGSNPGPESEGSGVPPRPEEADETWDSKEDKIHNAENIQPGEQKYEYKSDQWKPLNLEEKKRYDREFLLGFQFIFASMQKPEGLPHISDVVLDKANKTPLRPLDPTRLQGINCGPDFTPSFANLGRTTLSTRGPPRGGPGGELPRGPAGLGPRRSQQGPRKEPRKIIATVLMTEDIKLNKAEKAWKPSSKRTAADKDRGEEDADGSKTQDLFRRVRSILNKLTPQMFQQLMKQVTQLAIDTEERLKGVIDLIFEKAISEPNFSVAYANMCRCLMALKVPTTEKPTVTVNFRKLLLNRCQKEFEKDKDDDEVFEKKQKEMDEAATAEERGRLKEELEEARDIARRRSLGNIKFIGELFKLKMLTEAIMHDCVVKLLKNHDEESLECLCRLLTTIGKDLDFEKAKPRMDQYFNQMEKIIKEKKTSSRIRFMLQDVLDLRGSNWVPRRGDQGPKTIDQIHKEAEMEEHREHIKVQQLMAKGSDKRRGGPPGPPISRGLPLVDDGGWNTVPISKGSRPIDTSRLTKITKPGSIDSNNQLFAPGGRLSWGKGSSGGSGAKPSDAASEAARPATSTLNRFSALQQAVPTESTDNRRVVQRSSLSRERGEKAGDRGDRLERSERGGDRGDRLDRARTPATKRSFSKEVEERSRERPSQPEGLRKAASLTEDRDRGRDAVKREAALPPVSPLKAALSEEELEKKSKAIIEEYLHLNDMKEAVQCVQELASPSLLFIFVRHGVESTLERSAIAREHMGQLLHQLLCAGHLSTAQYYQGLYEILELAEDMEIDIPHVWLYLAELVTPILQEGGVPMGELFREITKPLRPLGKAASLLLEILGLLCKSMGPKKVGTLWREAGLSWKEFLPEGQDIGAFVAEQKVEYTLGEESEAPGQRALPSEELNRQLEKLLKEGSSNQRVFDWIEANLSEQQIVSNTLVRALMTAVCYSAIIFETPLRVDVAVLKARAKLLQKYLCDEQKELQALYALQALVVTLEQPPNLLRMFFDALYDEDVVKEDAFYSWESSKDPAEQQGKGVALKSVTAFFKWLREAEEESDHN

Target: eukaryotic translation initiation factor 4 gamma1 (eIF4GI), HA-tagged (human) (UniProt Q04637)
Assay: affinity purification with mass spectrometry; HeLa cells transfected with eIF4GI-HA for 24 h; lysate subjected to IP with anti-HA antibody; SDS-PAGE, silver staining, mass spectrometry

Row | Molecule | binding
1 | G3BP1 (endogenous, found by IP/MS) (from UniProt Q13283 1-466) | binds
2 | G3BP2 (endogenous, found by IP/MS) (protein, UniProt Q9UN86 1-482) MVMEKPSPLLVGREFVRQYYTLLNKAPEYLHRFYGRNSSYVHGGVDASGKPQEAVYGQNDIHHKVLSLNFSECHTKIRHVDAHATLSDGVVVQVMGLLSNSGQPERKFMQTFVLAPEGSVPNKFYVHNDMFRYEDEVFGDSEPELDEESEDEVEEEQEERQPSPEPVQENANSGYYEAHPVTNGIEEPLEESSHEPEPEPESETKTEELKPQVEEKNLEELEEKSTTPPPAEPVSLPQEPPKAFSWASVTSKNLPPSGTVSSSGIPPHVKAPVSQPRVEAKPEVQSQPPRVREQRPRERPGFPPRGPRPGRGDMEQNDSDNRRIIRYPDSHQLFVGNLPHDIDENELKEFFMSFGNVVELRINTKGVGGKLPNFGFVVFDDSEPVQRILIAKPIMFRGEVRLNVEEKKTRAARERETRGGGDDRRDIRRNDRGPGGPRGIVGGGMMRDRDGRGPPPRGGMAQKLGSGRGTGQMEGRFTGQRR | binds
